Data source: PubChem BioAssay AID1508597 (Cure First, 2020)
Test: 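Survival screen with siRNA in ovarian cancer cells derived from patients, with or without rucaparib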 (primary screen). Cell system: human ovarian carcinoma lines grown from tumours: OCI-P5x (papillary serous) and OCI-C5x (clear cell). Knock-down reagent: siRNA pool against human genes, 1.25 pmol siRNA per well. Duration: 72 h or 96 h, depending on the cell culture. Challenge: rucaparib 20 µM (about IC30) or vehicle, present until read-out. Read-out: 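ATP luminescence measured at 72 or 96 h according to the culture, then normalised and expressed as percent viability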. Direction: viability, normalised: higher = more viable cells remaining. Rule for the call: 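a well counts as a hit if its normalised viability is under 80 percent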. Calls: active = viability under 80%; inactive = viability 80% or more.
The whole screen tested about 2,100 reagents; below is a part drawn at random. 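Calls flag viability under 80% in either arm, not effects specific to rucaparib; the reference for percent is not stated.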 A reagent listed more than once was tested more than once; the source does not tell the runs apart. Reagent sequences are not shown. Not stated in the record: the 100% reference.

target | rucaparib or vehicle | cell line | technical replicate | viability, normalised (%) | call
DNER (delta/notch like EGF repeat containing) | Rucaparib | OCI-C5x (clear cell) | 1 | 45.9 | active
DNER (delta/notch like EGF repeat containing) | Rucaparib | OCI-C5x (clear cell) | 2 | 40.3 | active
DNER (delta/notch like EGF repeat containing) | Rucaparib | OCI-C5x (clear cell) | 3 | 40.7 | active
DNER (delta/notch like EGF repeat containing) | Rucaparib | OCI-P5x (serous) | 1 | 80.1 | inactive
DNER (delta/notch like EGF repeat containing) | Rucaparib | OCI-P5x (serous) | 2 | 76 | active
DNER (delta/notch like EGF repeat containing) | Rucaparib | OCI-P5x (serous) | 3 | 75.2 | active
DNER (delta/notch like EGF repeat containing) | Vehicle | OCI-C5x (clear cell) | 1 | 54.1 | active
DNER (delta/notch like EGF repeat containing) | Vehicle | OCI-C5x (clear cell) | 2 | 45.3 | active
DNER (delta/notch like EGF repeat containing) | Vehicle | OCI-C5x (clear cell) | 3 | 54.6 | active
DNER (delta/notch like EGF repeat containing) | Vehicle | OCI-P5x (serous) | 1 | 74.1 | active
DNER (delta/notch like EGF repeat containing) | Vehicle | OCI-P5x (serous) | 2 | 65.2 | active
DNER (delta/notch like EGF repeat containing) | Vehicle | OCI-P5x (serous) | 3 | 79.7 | active
RPA1 (replication protein A1) | Rucaparib | OCI-C5x (clear cell) | 1 | 60.8 | active
RPA1 (replication protein A1) | Rucaparib | OCI-C5x (clear cell) | 1 | 36.2 | active
RPA1 (replication protein A1) | Rucaparib | OCI-C5x (clear cell) | 2 | 43.3 | active
RPA1 (replication protein A1) | Rucaparib | OCI-C5x (clear cell) | 2 | 45.6 | active
RPA1 (replication protein A1) | Rucaparib | OCI-C5x (clear cell) | 3 | 35.6 | active
RPA1 (replication protein A1) | Rucaparib | OCI-C5x (clear cell) | 3 | 35.7 | active
RPA1 (replication protein A1) | Rucaparib | OCI-P5x (serous) | 1 | 48.7 | active
RPA1 (replication protein A1) | Rucaparib | OCI-P5x (serous) | 1 | 89.1 | inactive
RPA1 (replication protein A1) | Rucaparib | OCI-P5x (serous) | 2 | 57.4 | active
RPA1 (replication protein A1) | Rucaparib | OCI-P5x (serous) | 2 | 56.7 | active
RPA1 (replication protein A1) | Rucaparib | OCI-P5x (serous) | 3 | 68.7 | active
RPA1 (replication protein A1) | Rucaparib | OCI-P5x (serous) | 3 | 56.2 | active
RPA1 (replication protein A1) | Vehicle | OCI-C5x (clear cell) | 1 | 29.3 | active
RPA1 (replication protein A1) | Vehicle | OCI-C5x (clear cell) | 1 | 29.6 | active
RPA1 (replication protein A1) | Vehicle | OCI-C5x (clear cell) | 2 | 20 | active
RPA1 (replication protein A1) | Vehicle | OCI-C5x (clear cell) | 2 | 31.6 | active
RPA1 (replication protein A1) | Vehicle | OCI-C5x (clear cell) | 3 | 26.8 | active
RPA1 (replication protein A1) | Vehicle | OCI-C5x (clear cell) | 3 | 26.7 | active
RPA1 (replication protein A1) | Vehicle | OCI-P5x (serous) | 1 | 60 | active
RPA1 (replication protein A1) | Vehicle | OCI-P5x (serous) | 1 | 49.9 | active
RPA1 (replication protein A1) | Vehicle | OCI-P5x (serous) | 2 | 64.5 | active
RPA1 (replication protein A1) | Vehicle | OCI-P5x (serous) | 2 | 50.1 | active
RPA1 (replication protein A1) | Vehicle | OCI-P5x (serous) | 3 | 41.6 | active
RPA1 (replication protein A1) | Vehicle | OCI-P5x (serous) | 3 | 49.1 | active
MAP1B (microtubule associated protein 1B) | Rucaparib | OCI-C5x (clear cell) | 1 | 50.5 | active
MAP1B (microtubule associated protein 1B) | Rucaparib | OCI-C5x (clear cell) | 2 | 40.2 | active
MAP1B (microtubule associated protein 1B) | Rucaparib | OCI-C5x (clear cell) | 3 | 50.4 | active
MAP1B (microtubule associated protein 1B) | Rucaparib | OCI-P5x (serous) | 1 | 50.8 | active
MAP1B (microtubule associated protein 1B) | Rucaparib | OCI-P5x (serous) | 2 | 49.3 | active
MAP1B (microtubule associated protein 1B) | Rucaparib | OCI-P5x (serous) | 3 | 17.8 | active
MAP1B (microtubule associated protein 1B) | Vehicle | OCI-C5x (clear cell) | 1 | 44.8 | active
MAP1B (microtubule associated protein 1B) | Vehicle | OCI-C5x (clear cell) | 2 | 53 | active
MAP1B (microtubule associated protein 1B) | Vehicle | OCI-C5x (clear cell) | 3 | 55 | active
MAP1B (microtubule associated protein 1B) | Vehicle | OCI-P5x (serous) | 1 | 46.7 | active
MAP1B (microtubule associated protein 1B) | Vehicle | OCI-P5x (serous) | 2 | 61 | active
MAP1B (microtubule associated protein 1B) | Vehicle | OCI-P5x (serous) | 3 | 66.4 | active
H4C13 (H4 clustered histone 13) | Rucaparib | OCI-C5x (clear cell) | 1 | 39.1 | active
H4C13 (H4 clustered histone 13) | Rucaparib | OCI-C5x (clear cell) | 2 | 41.7 | active
H4C13 (H4 clustered histone 13) | Rucaparib | OCI-C5x (clear cell) | 3 | 51.4 | active
H4C13 (H4 clustered histone 13) | Rucaparib | OCI-P5x (serous) | 1 | 70.5 | active
H4C13 (H4 clustered histone 13) | Rucaparib | OCI-P5x (serous) | 2 | 66.3 | active
H4C13 (H4 clustered histone 13) | Rucaparib | OCI-P5x (serous) | 3 | 56.8 | active
H4C13 (H4 clustered histone 13) | Vehicle | OCI-C5x (clear cell) | 1 | 52.7 | active
H4C13 (H4 clustered histone 13) | Vehicle | OCI-C5x (clear cell) | 2 | 50.7 | active
H4C13 (H4 clustered histone 13) | Vehicle | OCI-C5x (clear cell) | 3 | 53.3 | active
H4C13 (H4 clustered histone 13) | Vehicle | OCI-P5x (serous) | 1 | 52.7 | active
H4C13 (H4 clustered histone 13) | Vehicle | OCI-P5x (serous) | 2 | 60.1 | active
H4C13 (H4 clustered histone 13) | Vehicle | OCI-P5x (serous) | 3 | 70.8 | active

Not a retest: entries from further up.
target | rucaparib or vehicle | cell line | technical replicate | viability, normalised (%) | call
DNER (delta/notch like EGF repeat containing) | Vehicle | OCI-P5x (serous) | 2 | 65.2 | active
DNER (delta/notch like EGF repeat containing) | Vehicle | OCI-P5x (serous) | 3 | 79.7 | active
RPA1 (replication protein A1) | Rucaparib | OCI-C5x (clear cell) | 1 | 60.8 | active
